Laboratory results published in article doi:10.1101/163998.
Results are given in words; binding and its absence hold for the method and conditions named. Binding seen in cells or lysates may run through a third protein. Binding can be weak; no strength is given.

Target: T1, DAP5, endogenous in MEFs (mouse (endogenous in MEFs)) (UniProt Q62448)
T1 sequence: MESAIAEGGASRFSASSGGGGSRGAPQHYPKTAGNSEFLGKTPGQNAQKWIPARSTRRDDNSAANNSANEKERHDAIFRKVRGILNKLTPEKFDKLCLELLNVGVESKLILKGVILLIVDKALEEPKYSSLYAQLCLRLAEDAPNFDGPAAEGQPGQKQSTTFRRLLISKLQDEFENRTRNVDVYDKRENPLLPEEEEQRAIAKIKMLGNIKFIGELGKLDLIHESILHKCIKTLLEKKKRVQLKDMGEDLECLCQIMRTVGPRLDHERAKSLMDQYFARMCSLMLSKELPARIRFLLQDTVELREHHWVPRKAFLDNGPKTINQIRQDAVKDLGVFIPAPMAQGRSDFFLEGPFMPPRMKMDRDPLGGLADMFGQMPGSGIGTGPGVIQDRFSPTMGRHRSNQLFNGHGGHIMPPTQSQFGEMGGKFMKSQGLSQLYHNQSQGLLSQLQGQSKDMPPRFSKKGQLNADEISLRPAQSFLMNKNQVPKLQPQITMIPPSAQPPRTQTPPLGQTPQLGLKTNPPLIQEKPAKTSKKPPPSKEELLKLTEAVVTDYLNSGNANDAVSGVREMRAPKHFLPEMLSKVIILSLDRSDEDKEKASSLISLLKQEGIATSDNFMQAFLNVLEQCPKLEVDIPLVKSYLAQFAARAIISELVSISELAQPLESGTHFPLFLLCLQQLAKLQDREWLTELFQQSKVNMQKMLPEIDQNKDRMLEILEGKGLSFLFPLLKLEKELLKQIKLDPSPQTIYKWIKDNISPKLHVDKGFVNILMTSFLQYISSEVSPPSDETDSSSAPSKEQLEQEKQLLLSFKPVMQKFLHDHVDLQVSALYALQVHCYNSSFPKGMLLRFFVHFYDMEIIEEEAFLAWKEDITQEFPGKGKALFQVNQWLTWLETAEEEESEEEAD
Test: co-IP

binding: binds
Substance: HA-tagged human IRF5-V5, stably expressed in Irf5-/- MEFs
